# Test results taken from ChEMBL document CHEMBL4513149, “CO-ADD screening of MMV (CH) - MMV compounds” (2021).
# The other results are listed elsewhere or left out. Measured potencies and affinities stand elsewhere.
# Test system: Acinetobacter baumannii
# Settings: Concentration 20 uM; ASSAY_TEST Inhibition of Bacterial Growth; detection method Absorption (OD600); MEDIA CAMHB; plate type 384well; NBS; CORNING #3640; time 18 hr
row,SMILES,Inhibition [%]
1,CCOc1ccc2cc(-c3nn(CC4CCN(C)CC4)c4ncnc(N)c34)ccc2c1.Cl,5.65
2,COc1ccccc1C(C)NCC(=O)Nc1cc(C(F)(F)F)ccc1Cl (stereo unspecified),6.23
3,Nc1ncc(-c2cn[nH]c2)cc1-c1nc2cc(Cl)cnc2[nH]1,13.92
4,O=C(NCc1nnc2n1CCCCC2)c1ccc(-c2ccc(F)cc2)o1,5.75
5,COc1ccc(Nc2ccccc2NC(=O)c2ccc(O)nc2)cc1,5.99
6,COc1cc(CN2CCC3(C=Cc4ccccc43)CC2)cc2c1OCO2,0.05
7,COc1cccc2c(C)nc(N=C(N)N)nc12.O=C(O)C(F)(F)F.O=C(O)C(F)(F)F,8.57
8,CC(C)n1nc(-c2cc3c(Cl)cccc3[nH]2)c2c(N)ncnc21,2.83
9,O=C(CN1CCOCC1)Nc1ccc2ncnc(Nc3ccc(OCc4cccc(F)c4)c(Cl)c3)c2c1,8.91
10,CS(=O)(=O)N1CCC(CCn2nc(Cc3cccc4ccccc34)c3c(N)ncnc32)CC1,6.81
11,CC(C)(C)n1nc(-c2ccccc2)c2c(N)ncnc21,6.94
12,CNC(=O)C1Cc2ccccc2N1C(=O)Cc1ccc(F)cc1 (stereo unspecified),8.68
13,Nc1nccc2ccc(-c3ccc4nccn4c3)cc12,6.02
14,O=C(C1CCN(c2cc(-n3cccc3)ncn2)CC1)N1CCc2ccccc2C1,0.82
15,COc1cccn2c(C(=O)N3CCCCC3)c(C(F)(F)F)nc12,11.51
16,COc1ccc(-c2nn(C(C)C)c3ncnc(N)c23)cc1OC,7.44
17,Cc1nn(C)cc1C(C)Nc1nncc(-c2ccc(C(F)(F)F)cc2)n1 (stereo unspecified),-2.54
18,CC(C)(C)C(=O)N(CCCCCCN1C[C@H](O)[C@@H](O)[C@H](O)[C@H]1CO)C1CCCCCC1,12.26
19,COC(=O)C1=C(C)NC(C)=C(C(=O)OC(C)C)C1c1cccc2nonc12 (stereo unspecified) [ISRADIPINE],4.46
20,CC(=O)N(CCN(C(=O)c1ccc(F)cc1)c1ccccc1)c1ccccc1,8.94
21,CC(C)(C)OC(=O)N1CCN(c2cc(-c3ccc(Oc4ccccc4)cc3)n[nH]2)CC1,9.81
22,CC(C)(C)c1ccc(N[C@@H]2CCCC[C@H]2NC(=O)c2ccco2)cc1,1.71
23,CCOC(=O)c1c(NC(=O)c2c(F)c(F)c(F)c(F)c2F)sc(C(N)=O)c1C,9.36

# Another view of part of the listing above:
row | SMILES | Inhibition [%]
7 | COc1cccc2c(C)nc(N=C(N)N)nc12.O=C(O)C(F)(F)F.O=C(O)C(F)(F)F | 8.57
8 | CC(C)n1nc(-c2cc3c(Cl)cccc3[nH]2)c2c(N)ncnc21 | 2.83
9 | O=C(CN1CCOCC1)Nc1ccc2ncnc(Nc3ccc(OCc4cccc(F)c4)c(Cl)c3)c2c1 | 8.91

# Following part:

row,SMILES,Inhibition [%]
1,N#Cc1ccc(-c2ccc(OCC(N)=O)cc2)cc1,6.44
2,Cl.c1ccc(C[C@@H]2CN(c3nccc(Oc4ccc(-n5ccnc5)cc4)n3)CCN2)cc1,9.29
3,COc1ccc(C2CC(c3cccs3)=NN2C(=O)c2ccco2)cc1OC (stereo unspecified),11.65
4,Clc1ccc(CN2CCN(C3=NCCN3)CC2)cc1Cl,14.57
5,NC(=O)c1cc(-c2ccsc2)ccc1OCCOc1ccccc1,13.51
6,Cc1ccc2cc(C3NC(=O)c4ccccc4N3)c(Cl)nc2c1 (stereo unspecified),8.31
7,CC(=O)O.CC(=O)O.Nc1ncnc2c1ncn2[C@@H]1O[C@H](COS(=O)(=O)NC(=O)c2ccccc2O)[C@@H](O)[C@H]1O,10.79
8,CCOc1ccccc1NC(C)C(=O)Nc1cc(C(F)(F)F)ccc1N1CCOCC1 (stereo unspecified),10.91
9,CCOc1ccc(-c2nc(CNCCc3ccc(F)cc3)cs2)cc1,-1.3
10,O=C(Nc1cccc(-c2ccc(NCCCN3CCCC3)nc2)c1)c1ccccc1,-5.25
11,CCn1cnc2c(Nc3cc(F)cc(F)c3)nc(C#N)nc21,3.78
12,CC(C)=CCC/C(C)=C\CNCCNC1C2CC3CC(C2)CC1C3 (stereo unspecified),42.43
13,Cc1cc(O)nc(-n2nc(C)cc2C)n1,8.06
14,Cc1nc(-c2cccc(NCc3ccccc3)c2)[nH]c1C,15.36
15,COc1ccc(-c2onc(C(F)(F)F)c2-c2ccc(Cl)cc2)c(O)c1,6.3
16,NCCC(O)C(=O)N[C@@H]1C[C@H](N)[C@@H](OC2O[C@H](CN)[C@@H](O)[C@H](O)[C@H]2O)[C@H](O)C1OC1O[C@H](CO)[C@@H](O)[C@H](N)[C@H]1O.O=S(=O)(O)O.O=S(=O)(O)O (stereo partly specified),-1.98
17,CC(Oc1cccc(Cl)c1)C(=O)Nc1ccc2oc(-c3ccncc3)nc2c1 (stereo unspecified),6.23
18,CCOc1ccc(-c2nc(NC(=O)CS(=O)(=O)c3ccccc3)sc2C)cc1,5.89
19,CNC(=O)C1Cc2c([nH]c3cc(Cl)ccc23)C2(CCN(CCc3ccccc3)CC2)N1 (stereo unspecified),-7.17
20,Cc1cc(NCC(C)C)c2[nH]nc(-c3ccccc3)c2n1,19.99
21,CCCc1ccc(S(=O)(=O)Nc2ccc(CN3CCN(CC4CC4)CC3)cc2)cc1,10.3
22,COc1ccc(-c2nc(-c3cccc(NC(=O)Cc4ccc(F)cc4)c3)no2)cc1OC,17.02
23,CC1COC2(CCN(c3nc(=O)c4cc(C(F)(F)F)cc([N+](=O)[O-])c4s3)CC2)O1 (stereo unspecified),7.79
